Assay [1] concerns the target T1, ARF7-HA (AUXIN RESPONSE FACTOR 7) (Arabidopsis thaliana) (UniProt P93022).
T1 sequence: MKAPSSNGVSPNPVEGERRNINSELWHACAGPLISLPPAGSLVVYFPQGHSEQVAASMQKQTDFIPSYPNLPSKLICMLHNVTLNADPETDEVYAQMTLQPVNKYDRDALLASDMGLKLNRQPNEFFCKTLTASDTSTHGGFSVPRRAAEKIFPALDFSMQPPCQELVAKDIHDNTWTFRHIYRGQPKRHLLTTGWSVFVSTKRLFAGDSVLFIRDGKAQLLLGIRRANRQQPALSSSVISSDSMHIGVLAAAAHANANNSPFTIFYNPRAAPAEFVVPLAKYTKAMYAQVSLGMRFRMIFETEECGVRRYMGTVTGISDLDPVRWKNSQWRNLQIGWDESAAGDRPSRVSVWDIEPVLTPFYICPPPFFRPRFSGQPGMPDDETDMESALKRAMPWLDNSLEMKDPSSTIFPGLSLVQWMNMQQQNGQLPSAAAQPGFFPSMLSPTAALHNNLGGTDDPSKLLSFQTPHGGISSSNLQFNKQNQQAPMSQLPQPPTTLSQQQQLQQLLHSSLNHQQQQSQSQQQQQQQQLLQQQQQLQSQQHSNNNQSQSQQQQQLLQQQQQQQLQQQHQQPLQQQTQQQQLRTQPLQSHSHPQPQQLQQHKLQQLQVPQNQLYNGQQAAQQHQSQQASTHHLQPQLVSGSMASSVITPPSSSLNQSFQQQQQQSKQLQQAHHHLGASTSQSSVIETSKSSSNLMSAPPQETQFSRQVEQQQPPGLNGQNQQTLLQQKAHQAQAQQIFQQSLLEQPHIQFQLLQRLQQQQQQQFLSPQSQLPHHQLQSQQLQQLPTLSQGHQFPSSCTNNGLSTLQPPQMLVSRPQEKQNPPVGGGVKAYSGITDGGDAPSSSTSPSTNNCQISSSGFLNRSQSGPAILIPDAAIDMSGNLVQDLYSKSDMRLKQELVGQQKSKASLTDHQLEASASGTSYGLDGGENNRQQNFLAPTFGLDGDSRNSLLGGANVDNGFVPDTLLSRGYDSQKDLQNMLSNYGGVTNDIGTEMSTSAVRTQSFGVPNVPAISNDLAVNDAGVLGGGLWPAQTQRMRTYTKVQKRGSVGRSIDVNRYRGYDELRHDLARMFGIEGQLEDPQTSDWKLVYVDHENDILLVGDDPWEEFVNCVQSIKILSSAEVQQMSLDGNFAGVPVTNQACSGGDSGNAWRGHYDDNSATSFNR
The assay is described as follows: co-IP; plant extract (1.0-2.0 mg protein) incubated with anti-GFP or anti-HA antibody, then Dynabeads Protein G and 2 μg GST, GST-AFF1 or GST-ΔF-box-AFF1 added for 2 hr at 4 °C; six washes; immunoblot with anti-GST; only the binder purified. (In general: A western blot detects proteins with antibodies after separation by electrophoresis.)

The target of assay [2] is T2, YFP-ARF19 (AUXIN RESPONSE FACTOR 19) (Arabidopsis thaliana) (UniProt Q8RYC8).
T2 sequence: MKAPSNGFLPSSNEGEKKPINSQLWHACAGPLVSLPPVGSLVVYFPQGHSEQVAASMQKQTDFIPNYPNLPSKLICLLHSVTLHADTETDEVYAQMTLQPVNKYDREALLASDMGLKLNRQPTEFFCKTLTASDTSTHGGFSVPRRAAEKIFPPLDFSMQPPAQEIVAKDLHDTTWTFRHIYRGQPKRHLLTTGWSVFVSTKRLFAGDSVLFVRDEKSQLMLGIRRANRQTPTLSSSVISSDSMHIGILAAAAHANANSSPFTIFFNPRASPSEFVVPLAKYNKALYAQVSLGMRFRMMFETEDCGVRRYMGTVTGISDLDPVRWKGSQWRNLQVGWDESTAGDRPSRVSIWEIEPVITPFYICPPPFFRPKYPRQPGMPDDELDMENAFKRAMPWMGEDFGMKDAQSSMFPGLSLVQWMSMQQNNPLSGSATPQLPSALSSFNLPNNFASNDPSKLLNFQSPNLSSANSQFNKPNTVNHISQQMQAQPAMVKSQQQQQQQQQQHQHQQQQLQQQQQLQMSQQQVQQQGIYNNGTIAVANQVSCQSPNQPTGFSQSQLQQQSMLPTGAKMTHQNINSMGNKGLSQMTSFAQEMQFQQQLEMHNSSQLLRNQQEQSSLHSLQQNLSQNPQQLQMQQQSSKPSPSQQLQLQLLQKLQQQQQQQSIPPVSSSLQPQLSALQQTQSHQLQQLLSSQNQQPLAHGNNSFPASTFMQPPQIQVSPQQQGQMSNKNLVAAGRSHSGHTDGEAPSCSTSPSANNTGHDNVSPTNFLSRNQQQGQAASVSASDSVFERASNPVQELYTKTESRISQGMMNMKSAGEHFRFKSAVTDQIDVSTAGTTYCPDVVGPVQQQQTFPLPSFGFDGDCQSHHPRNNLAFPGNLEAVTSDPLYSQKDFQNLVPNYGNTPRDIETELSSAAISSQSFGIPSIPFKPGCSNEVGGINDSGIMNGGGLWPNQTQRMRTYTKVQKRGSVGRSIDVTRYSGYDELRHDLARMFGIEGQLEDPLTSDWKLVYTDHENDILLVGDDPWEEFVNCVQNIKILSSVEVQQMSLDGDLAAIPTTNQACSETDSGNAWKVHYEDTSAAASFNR
Described as above.

Assay [3] addresses T3, ARF19 as BiFC fusions (nEYFP-ARF19 and cEYFP-ARF19) (Arabidopsis thaliana), Q8RYC8.
T3 chain: T2 sequence
The assay is described as follows: split reporter; BiFC with nEYFP and cEYFP fusions co-infiltrated with the p19 strain into 3-week-old Nicotiana benthamiana leaves, 22 °C, 3 d; confocal microscopy; nuclear marker WPP-mCherry. Conditions: remark: other sources report otherwise.

No constants are given. Whether binding was seen depends on the method and setting. In cells and extracts the contact can be indirect. Some results given as binding are weak or reduced against the parent protein; the word gives no strength. Sequences can lack the tags named with a protein.

B1: GST-AFF1 (AUXIN RESPONSE FACTOR F-BOX1, At3g49150) (protein, UniProt Q9M3B7 1-630)
chain: MDICCKDIISDHSKKDIISDLPEALICHILSFLPIEDSALTSVLSKKWQHLFAFRPNLEFDDAVVYLNPDGERNETIFENFVDRVLSLQGDYPINKFSLTCRDFTDPTCVSRWISNVMERGVSDLDLRCIVYWDNGTMPPDIFVSKALVHLRIETGNGAFIDVEDVFLPNLKTLYLNKVLLRHSDNGFVKLITSCHVLEDLFIMNICWDGYLKRSLSSKTLKRLTFFCEDVHAVNPESVSFDTPNLVYFVYHDCVADKYKNMNFDSLVYASICLQMTSHQRTHASYEHLVGNATDFLLGISNVQILELFANTIEVLTFCCEQIPVFKNLVCLIIKTDQKAGWESLPVLLKNCPDLESLIFDGLHHNDTIKCEDVDGCLCKSSRGIPSCLSSSPVQFLTIWKFGEICDDYDDMEKQIELVMYFLETMPNLEEMKLFYDTQIYEDVISKLQMDLRRTLSLRSLFNARCYQPSCSGIIQRDDVHEEKPHYGSFLHQRSFSSSMILSQQHMMRSPSHFPLCSPFGVSTYRPMSTSHISGSDESGDVNHVAETLTDLVQQDTVIEVADAAIDSSIQLDFVQQIVHNVHSLTGLNWWASIVFTTFLIRGVTIPLMIECERWFSKRMVIKQCSFVNT
As for B1, the binding result in assay [1] and in assay [2] was “binds” in each case.

B2: ARF19 as BiFC fusions (nEYFP-ARF19 and cEYFP-ARF19), Q8RYC8 1-1086 (protein)
chain: T2 sequence
As to B2, the binding result in assay [3] is “binds”.
